Experimental findings from patent US20150275192 are described below.

Data set [1] deals with T1, PolD4K (D4YK) V93Q,D141A,E143A,L403P,A485L,P657T,E658Q,K659H,Y663H,E664K,D669A,K671N,T676I (Thermococcus gorgonarius) (UniProt P56689).
T1 sequence: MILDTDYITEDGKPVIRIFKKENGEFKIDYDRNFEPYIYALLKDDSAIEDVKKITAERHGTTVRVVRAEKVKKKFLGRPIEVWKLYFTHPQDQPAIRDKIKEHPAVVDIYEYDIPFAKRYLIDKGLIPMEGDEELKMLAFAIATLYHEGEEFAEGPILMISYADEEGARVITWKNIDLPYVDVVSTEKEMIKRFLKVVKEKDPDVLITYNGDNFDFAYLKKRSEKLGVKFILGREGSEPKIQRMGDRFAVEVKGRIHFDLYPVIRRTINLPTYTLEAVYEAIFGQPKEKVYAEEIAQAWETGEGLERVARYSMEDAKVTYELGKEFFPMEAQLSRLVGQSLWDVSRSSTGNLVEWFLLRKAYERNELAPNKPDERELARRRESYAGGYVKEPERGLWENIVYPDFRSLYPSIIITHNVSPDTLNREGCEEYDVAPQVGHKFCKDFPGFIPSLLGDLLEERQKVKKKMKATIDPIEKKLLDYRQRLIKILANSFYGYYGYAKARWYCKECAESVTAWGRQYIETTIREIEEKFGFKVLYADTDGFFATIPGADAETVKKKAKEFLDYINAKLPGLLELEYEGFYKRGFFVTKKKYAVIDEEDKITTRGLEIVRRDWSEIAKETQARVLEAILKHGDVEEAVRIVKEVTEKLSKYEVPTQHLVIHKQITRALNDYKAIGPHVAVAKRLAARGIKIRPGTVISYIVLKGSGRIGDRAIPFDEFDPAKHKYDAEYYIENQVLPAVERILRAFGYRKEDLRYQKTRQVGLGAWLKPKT
In words: activity assay. The conditions noted are these: ANA synthesis; full-length product at 18.8 nM polymerase; 1x ThermoPol; purified recombinant protein; label: 5' FITC on primer.

Data set [2] addresses T2, TSK V93Q,D141A,E143A,Y409S,A485L,E664K (Thermococcus gorgonarius) (UniProt P56689).
T2 sequence: T1 sequence with P403L, Y409S, T657P, Q658E, H659K, H663Y, A669D, N671K, I676T
Briefly: activity assay. The conditions noted are these: outperforms D4S; less active than D4SK; protein in a lysate after overexpression; label: 5' FITC on primer.

Changes are numbered by the printed parent chain. Protein sequences can lack the tags named with them.

For the sequence “CCCCTTATTAGCGTTTGCCA / CTCACGATGCTGGACCAGATAAGCACTTAGCCACGTAGTGCTGTTCGGTAATCGATCTGGCAAACGCTAATAAGGGG [fd primer / TempN template]”, the “activity on this sequence” value in data set [1] and in data set [2] was “active” each time.
